Reference: patent US9926271B2, “Octahydrocyclopentapyrroles, their preparation and use” (The Trustees of Columbia University in the City of New York, priority 2013, dated 2018)
Some of these results come from one statement about several compounds together.

What was measured:
RBP4 = RBP4 (Homo sapiens, UniProt P02753); experiment: Scintillation proximity RBP4 binding assay (SPA); design: Untagged human RBP4 purified from urine of tubular proteinuria patients; purchased Fitzgerald Industries International; host or cells: urine of tubular proteinuria patients; conditions: in vitro
Description: Scintillation Proximity RBP4 Binding Assay
Untagged human RBP4 purified from urine of tubular proteinuria patients was purchased from Fitzgerald Industries International. It was biotinylated using the EZ-Link Sulfo-NHS-LC-Biotinylation kit from Pierce following the manufacturer's recommendations. Binding experiments were performed in 96-well plates (OptiPlate, PerkinElmer) in a final assay volume of 100 μl per well in SPA buffer (1×PBS, pH 7.4, 1 mM EDTA, 0.1% BSA, 0.5% CHAPS). The reaction mix contained 10 nM ^3H-Retinol (48.7 Ci/mmol; PerkinElmer), 0.3 mg/well Streptavidin-PVT beads, 50 nM biotinylated RBP4 and a test compound. Nonspecific binding was determined in the presence of 20 μM of unlabeled retinol. The reaction mix was assembled in the dark under dim red light. The plates were sealed with clear tape (TopSeal-A: 96-well microplate, PerkinElmer), wrapped in the aluminum foil, and allowed to equilibrate 6 hours at room temperature followed by overnight incubation at +4° C. Radiocounts were measured using a TopCount NXT counter (Packard Instrument Company).

RBP4-TTR interaction = RBP4-TTR interaction (Homo sapiens, UniProt P02753); experiment: TR-FRET (HTRF) assay for retinol-induced RBP4-TTR interaction; format: biochemical; design: human RBP4 fragment (amino acids 19-201); host or cells: Gold(DE3)pLysS E. coli strain (Stratagene), pMAL-c4x vector; conditions: in vitro
Text: TR-FRET Assay for Retinol-Induced RBP4-TTR Interaction
Binding of a desired RBP4 antagonist displaces retinol and induces hindrance for RBP4-TTR interaction resulting in the decreased FRET signal (FIG. 7). Bacterially expressed MBP-RBP4 and untagged TTR were used in this assay. […] Following cell lysis, recombinant RBP4 was purified from the soluble fraction using the ACTA FPLC system (GE Healthcare) equipped with the 5-ml the MBP Trap HP column. Human untagged TTR was purchased from Calbiochem. Untagged TTR was labeled directly with Eu^3+ Cryptate-NHS using the HTRF Cryptate Labeling kit from CisBio following the manufacturer's recommendations. HTRF assay was performed in white low volume 384 well plates (Greiner-Bio) in a final assay volume of 16 μl per well. The reaction buffer contained 10 mM Tris-HCl pH 7.5, 1 mM DTT, 0.05% NP-40, 0.05% Prionex, 6% glycerol, and 400 mM RE. […] Titration of test compounds in this assay was conducted in the presence of 1 μM retinol. All reactions were assembled in the dark under dim red light and incubated overnight at +4° C. wrapped in aluminum foil. TR-FRET signal was measured in the SpectraMax M5e Multimode Plate Reader (Molecular Device). Fluorescence was excited at 337 nm and two readings per well were taken: Reading 1 for time-gated energy transfer from Eu(K) to d2 (337 nm excitation, 668 nm emission, counting delay 75 microseconds, counting window 100 microseconds) and Reading 2 for Eu(K) time-gated fluorescence (337 nm excitation, 620 nm emission, counting delay 400 microseconds, counting window 400 microseconds). The TR-FRET signal was expressed as the ratio of fluorescence intensity: Flu665/Flu620×10,000.

Row | Compound | RBP4 binding (SPA), result in words (RBP4) | antagonism of retinol-dependent RBP4-TTR interaction (HTRF), result in words (RBP4-TTR interaction)
1 | CS(=O)(=O)N1CCc2c(C(=O)N3C[C@H]4C[C@@H](c5ccccc5C(F)(F)F)C[C@H]4C3)n[nH]c2C1 [Compound 43, (6-(Methylsulfonyl)-4,5,6,7-tetrahydro-1H-pyrazolo[3,4-c]pyridin-3-yl)((3aR,5R,6aS)-5-(2-(trifluoromethyl)phenyl)hexahydrocyclo-penta[c]pyrrol-2(1H)-yl)methanone] | binded to RBP4 | antagonized retinol-dependent RBP4-TTR interaction
2 | CN1CCc2c(C(=O)N3C[C@H]4C[C@@H](c5ccccc5C(F)(F)F)C[C@H]4C3)n[nH]c2C1 [Compound 44, (6-Methyl-4,5,6,7-tetrahydro-1H-pyrazolo[3,4-c]pyridin-3-yl)((3aR,5R,6aS)-5-(2-(trifluoromethyl)phenyl)hexahydrocyclopenta[c]pyrrol-2(1H)-yl)methanone] | binded to RBP4 | antagonized retinol-dependent RBP4-TTR interaction
3 | CS(=O)(=O)N1CCc2[nH]nc(C(=O)N3C[C@H]4C[C@@H](c5ccccc5C(F)(F)F)C[C@H]4C3)c2C1 [Compound 45, 1-(3-((3aR,5R,6aS)-5-(2-(Trifluoromethyl)phenyl)octahydrocyclopenta[c]pyrrole-2-carbonyl)-6,7-dihydro-1H-pyrazolo[4,3-c]pyridin-5(4H)-yl)ethanone] | binded to RBP4 | antagonized retinol-dependent RBP4-TTR interaction
4 | CC(=O)N1CCc2[nH]nc(C(=O)N3C[C@H]4C[C@@H](c5ccccc5C(F)(F)F)C[C@H]4C3)c2C1 [Compound 46, 1-(3-((3aR,5R,6aS)-5-(2-(Trifluoromethyl)phenyl)octahydrocyclopenta[c]pyrrole-2-carbonyl)-6,7-dihydro-1H-pyrazolo[4,3-c]pyridin-5(4H)-yl)ethanone] | binded to RBP4 | antagonized retinol-dependent RBP4-TTR interaction
5 | CN1Cc2[nH]nc(C(=O)N3C[C@H]4C[C@@H](c5ccccc5C(F)(F)F)C[C@H]4C3)c2C1 [Compound 47, (5-Methyl-1,4,5,6-tetrahydropyrrolo[3,4-c]pyrazol-3-yl)((3aR,5R,6aS)-5-(2-(trifluoromethyl)phenyl)hexahydrocyclopenta[c]pyrrol-2(1H)-yl)methanone] | binded to RBP4 | antagonized retinol-dependent RBP4-TTR interaction
6 | CS(=O)(=O)N1Cc2[nH]nc(C(=O)N3C[C@H]4C[C@@H](c5ccccc5C(F)(F)F)C[C@H]4C3)c2C1 [Compound 48, (5-(Methylsulfonyl)-1,4,5,6-tetrahydropyrrolo[3,4-c]pyrazol-3-yl)((3aR,5R,6aS)-5-(2-(trifluoromethyl)phenyl)hexahydrocyclopenta[c]pyrrol-2(1H)-yl)methanone] | binded to RBP4 | antagonized retinol-dependent RBP4-TTR interaction
7 | CC(=O)N1Cc2[nH]nc(C(=O)N3C[C@H]4C[C@@H](c5ccccc5C(F)(F)F)C[C@H]4C3)c2C1 [Compound 49, 1-(3-((3aR,5R,6aS)-5-(2-(Trifluoromethyl)phenyl)octahydro-cyclopenta[c]pyrrole-2-carbonyl)pyrrolo[3,4-c]pyrazol-5(1H,4H,6H)-yl)ethanone] | binded to RBP4 | antagonized retinol-dependent RBP4-TTR interaction
8 | O=C(c1c[nH]nn1)N1C[C@H]2C[C@@H](c3ccccc3C(F)(F)F)C[C@H]2C1 [Compound 57, (1H-1,2,3-Triazol-4-yl)((3aR,5R,6aS)-5-(2-(trifluoromethyl)phenyl)hexahydrocyclopenta[c]pyrrol-2(1H)-yl)methanone] | binded to RBP4 | antagonized retinol-dependent RBP4-TTR interaction
9 | COC(=O)c1cc(C)nc(N2C[C@H]3C[C@@H](c4ccccc4C(F)(F)F)C[C@H]3C2)n1 [Compound 58, Methyl 6-methyl-2-((3aR,5r,6aS)-5-(2-(trifluoromethyl)phenyl)hexahydrocyclopenta[c]pyrrol-2(1H)-yl)pyrimidine-4-carboxylate] | binded to RBP4 | antagonized retinol-dependent RBP4-TTR interaction
10 | O=C(O)c1ccnc(N2C[C@H]3C[C@@H](c4ccccc4C(F)(F)F)C[C@H]3C2)n1 [Compound 64, 2-((3aR,5r,6aS)-5-(2-(Trifluoromethyl)phenyl)hexahydrocyclopenta[c]pyrrol-2(1H)-yl)pyrimidine-4-carboxylic Acid] | binded to RBP4 | antagonized retinol-dependent RBP4-TTR interaction
11 | O=C(O)c1cc(C(F)(F)F)nc(N2C[C@H]3C[C@@H](c4ccccc4C(F)(F)F)C[C@H]3C2)n1 [Compound 65, 6-(Trifluoromethyl)-2-((3aR,5r,6aS)-5-(2-(trifluoromethyl)phenyl)hexahydrocyclopenta[c]pyrrol-2(1H)-yl)pyrimidine-4-carboxylic Acid] | binded to RBP4 | antagonized retinol-dependent RBP4-TTR interaction
12 | O=C(O)c1nc(N2C[C@H]3C[C@@H](c4ccccc4C(F)(F)F)C[C@H]3C2)ncc1F [Compound 67] | binded to RBP4 | antagonized retinol-dependent RBP4-TTR interaction
13 | O=C(O)c1cnc(N2C[C@H]3C[C@@H](c4ccccc4C(F)(F)F)C[C@H]3C2)nc1 [Compound 68] | binded to RBP4 | antagonized retinol-dependent RBP4-TTR interaction
14 | Cc1cc(C(=O)O)nc(N2C[C@H]3C[C@@H](c4ccccc4C(F)(F)F)C[C@H]3C2)c1 [Compound 69, 4-Methyl-6-((3aR,5r,6aS)-5-(2-(trifluoromethyl)phenyl)hexahydrocyclopenta[c]pyrrol-2(1H)-yl)picolinic Acid] | binded to RBP4 | antagonized retinol-dependent RBP4-TTR interaction
